Assay results published in PubChem BioAssay AID2685 (National Center for Advancing Translational Sciences (NCATS), 2010).
The list shows a part of the results. Further columns of the screen follow, without active or inactive calls. Most of these compounds were active or inconclusive in the main read-out, so they are no random draw. Potencies come from curve fits of mixed quality, noted in brackets.

Assay: qHTS Assay for Lipid Storage Modulators in Drosophila S3 Cells;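 on cell number change: cells counted by Cell Tracker Red CMTPX staining in the red channel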
Settings: BODIPY lipid droplet fluorescence, 18-24 h; for cell number change: measured here: cell count max response, cells fed with added oleic acid
Procedure, shortened: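 Drosophila S3 cells loaded with oleic acid (400 uM, as added) and compounds at several concentrations; lipid droplets imaged by 488-nm laser-scanning cytometry, 500–530 nm intensity and object ratio to cell channel. Percent activity normalized to 20 uM Triacsin C.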

[1] = measured here: lipid fluorescence (Fed channel) AC50, cells fed with added oleic acid
[2] = measured here: cell number channel AC50, cells fed with added oleic acid

SMILES | cell number change [%] | AC50 [1] | AC50 [2]
CCC(C)c1ccccc1N1CC(C(=O)N(C)CC(=O)Nc2cccc(F)c2)CC1=O (stereo not given) | -28 | 29.1 µM [falling, single point] | 
CCOC(=O)Cc1csc(NC(=O)Cn2c(=O)oc3ccccc32)n1 |  | 2.06 µM [rising, partial curve] | 2.31 µM [rising, partial curve]
COc1cc(/C=C/C(=O)OCC(=O)NCC(=O)Nc2cccc(C)c2C)ccc1OC(F)F | 34.1 |  | 29.1 µM [rising, single point]
CCCCCCCCOC(=O)c1c(CSC(=N)N)n(C)c2cc(Br)c(OC(C)=O)cc12 | -71.6 | 23.1 µM [falling, partial curve] | 18.4 µM [falling, partial curve]
COc1ccc(/C=C/C(=O)N(C)C2CCS(=O)(=O)C2)cc1 (stereo not given) | -5.23 |  | 
COc1cccc(N2CC(NS(=O)(=O)c3ccc(Cl)cc3)CC2=O)c1 (stereo not given) | 29 | 23.1 µM [rising, single point] | 
Cn1c2ccccc2c2c(C(=O)N3CCN(c4ccc(F)cc4)CC3)cn(C3CCCC3)c(=O)c21 | -32 | 0.517 µM [rising, partial curve] | 6.51 µM [falling, partial curve]
CSc1sccc1/C=C(/C#N)C(=O)c1ccco1 | 111 | 6.51 µM [rising, partial curve, poor fit] | 3.66 µM [rising, full curve, poor fit]
CN1CCCN(C(=O)c2cc(-c3ccc(Cl)c(Cl)c3Cl)nc3ccccc23)CC1 |  | 0.00517 µM [rising, full curve, poor fit] | 0.92 µM [rising, single point]
CC(=O)c1cc(-c2ccccc2)n(CCC(=O)NCc2cccs2)c1C |  | 6.51 µM [rising, single point] | 6.51 µM [rising, single point]
O=[N+]([O-])c1cc([N+](=O)[O-])c(Oc2ccc(Br)cc2Br)cc1NN1CCCCC1 | -2.27 |  | 
CSCCC(NC(=O)c1ccc(C)o1)C(=O)O (stereo not given) | -0.404 | 6.51 µM [rising, partial curve] | 
Cc1c(Cl)cccc1NC(=O)Nc1cccnc1 | -9.9 | 29.1 µM [rising, single point] | 
Cc1cc(C)cc(NC(=S)N2CCC(NC(=O)C3CC3)CC2)c1 | 16.9 | 0.517 µM [rising, full curve] | 
Cc1ccc(O)c(CP(=O)(c2ccccc2)c2ccccc2)c1 | 72.8 | 11.6 µM [rising, partial curve] | 6.51 µM [rising, partial curve]
CC(C)c1nnc(NC(=O)CCS(=O)(=O)c2nc(-c3cccs3)cc(C(F)(F)F)n2)s1 | -92.7 | 7.31 µM [falling, partial curve] | 8.2 µM [falling, partial curve]
CC1=C(C(=O)N2CCOCC2)C(c2ccsc2)C2=C(CCCC2=O)N1 (stereo not given) | -3.58 | 0.517 µM [falling, full curve] | 
COc1ccc(/C=C2\CC/C(=C\c3ccc(OC)c(OC)c3)C2=O)cc1OC | -7.91 |  | 
COc1ccccc1NC(=O)C1CCN(C(=O)C2CC(=O)N(c3ccc(C)cc3)C2)CC1 (stereo not given) | 24.4 | 29.1 µM [rising, single point] | 
O=C(O)c1ccc(C2Nc3ccccc3C(=O)N2Cc2ccccc2)cc1 (stereo not given) | -4.27 |  | 
COc1ccccc1NC(=O)CCN1C(=O)/C(=C\c2cc(OC)c(OC)c(OC)c2)SC1=S | -21 | 6.51 µM [falling, single point] | 2.06 µM [falling, partial curve, poor fit]
COc1ccccc1/C=C/C(=O)OCc1nc2ccccc2c(=O)[nH]1 | -50.2 |  | 
CCOc1ccc(NC(=O)NCCCn2c(C)nc3cc(C)c(C)cc32)cc1 | 112 | 2.59 µM [rising, full curve] | 2.31 µM [rising, full curve]
O=C(NCc1ccco1)C(c1ccco1)N(CCc1ccccc1)C(=O)Cn1nnc2ccccc21 (stereo not given) | -29.8 | 20.6 µM [falling, single point] | 
CCCc1cc(-c2[nH]ncc2-c2ccc3c(c2)OCCCO3)c(O)cc1O | -81.7 | 18.4 µM [falling, partial curve] | 16.4 µM [falling, partial curve]
O=C(CN1C(=O)/C(=C/c2ccc(Cl)cc2)SC1=S)NC1C=CS(=O)(=O)C1 (stereo not given) | -20.6 | 29.1 µM [falling, single point] | 
CC(C)=CCCC1(C)C=Cc2c(ccc3c2[nH]c2cc(O)c(C)cc23)O1 (stereo not given) | -62.7 | 18.4 µM [falling, single point] | 29.1 µM [falling, single point]
O=C(CN1CCN(C(=O)c2ccc(-c3nc4ccccc4s3)o2)CC1)Nc1ccccc1Cl | -41.9 | 4.11 µM [falling, single point] | 20.6 µM [falling, single point]

In the list so far, these have an NH in an aromatic ring.
SMILES | cell number change [%] | AC50 [1] | AC50 [2]
COc1ccccc1/C=C/C(=O)OCc1nc2ccccc2c(=O)[nH]1 | -50.2 |  | 
CCCc1cc(-c2[nH]ncc2-c2ccc3c(c2)OCCCO3)c(O)cc1O | -81.7 | 18.4 µM [falling, partial curve] | 16.4 µM [falling, partial curve]
CC(C)=CCCC1(C)C=Cc2c(ccc3c2[nH]c2cc(O)c(C)cc23)O1 (stereo not given) | -62.7 | 18.4 µM [falling, single point] | 29.1 µM [falling, single point]

Later entries

SMILES | cell number change [%] | AC50 [1] | AC50 [2]
C=CCNC(=S)N/N=C/c1ccc(OCc2ccccc2Cl)cc1 | 7.9 | 14.6 µM [rising, partial curve, poor fit] | 
CC(C)(C)c1nnc(NC(=O)Cc2ccccc2[N+](=O)[O-])s1 | -20.7 | 3.26 µM [falling, single point] | 
CN=CC1=C(O)c2ccccc2C1=O | 25.1 | 3.66 µM [rising, full curve] | 
Cn1c(=O)n(C)c2cc([N+](=O)[O-])c(N3CCN(S(=O)(=O)c4ccc(C(C)(C)C)cc4)CC3)cc21 | -98.4 | 4.61 µM [falling, full curve] | 4.61 µM [falling, full curve]
O=C(O)CCn1ncc2ccccc2c1=O | 23.2 |  | 
Cc1ccc(C(=O)OCC(=O)N2C(C)CCCC2C)s1 (stereo not given) | 8.21 | 0.116 µM [rising, partial curve, poor fit] | 
Cc1nc2ccc(NC(=O)NCCCO)cc2s1 | 11.9 |  | 
O=C(NCCCN1CCOCC1)c1cc(-c2ccc(F)cc2)nc2ccccc12 | 11.8 | 0.58 µM [falling, full curve] | 
Cc1ccc(CN2CCCC(C(=O)N3CCCC3)C2)cc1 (stereo not given) | 18 |  | 
COc1ccc2sc(N(CCCN(C)C)C(=O)c3ccc(S(=O)(=O)N4CCc5ccccc5C4)cc3)nc2c1 | -88 | 20.6 µM [falling, single point] | 18.4 µM [falling, single point]
CCCCCN(C(=O)COC(=O)Cc1c(C)nc2ccccc2c1C)c1c(N)n(CCCC)c(=O)[nH]c1=O | 32.8 |  | 16.4 µM [rising, single point]
COc1cccc(NC2=C(NCCO)C(=O)c3ccccc3C2=O)c1 | -46 | 4.61 µM [falling, partial curve, poor fit] | 9.2 µM [falling, partial curve]
COc1ccccc1C(=O)NNc1ncc(C)s1 | -15.3 | 14.6 µM [falling, single point] | 6.51 µM [falling, single point]
Fc1ccc(CSc2ccc3nnc(-c4ccccn4)n3n2)cc1 | 17.3 |  | 
CCN(CC)CCN(C(=O)C1=COCCO1)c1nc2c(OC)ccc(OC)c2s1 | 2.78 |  | 
O=c1[nH]nc(N/N=C/c2ccc(Cl)cc2Cl)c(=O)[nH]1 |  | 1.3 µM [rising, full curve, poor fit] | 
CN(C)C(=O)COC(=O)c1ccccc1NC(=O)c1ccco1 | 72.3 |  | 20.6 µM [rising, single point]
CSCCC(NC(=O)c1cccc(C)c1)C(=O)Nc1sccc1C(N)=O (stereo not given) |  | 6.51 µM [rising, single point] | 0.731 µM [rising, single point]
Cc1ccc(-c2csc(N3CCN(c4ccc5nc(-c6ccncc6)n(CCN6CCCCC6)c5c4)CC3)n2)cc1 | -17.7 | 6.51 µM [rising, single point] | 
COC(=O)c1cc(S(=O)(=O)N2CCOCC2)c(Cl)cc1N1CCOCC1 | -1.35 | 20.6 µM [falling, partial curve] | 0.82 µM [falling, partial curve]
COc1ccc(C(C(=O)NC2CCCC2)N(CCN2CCOCC2)C(=O)c2ccc(OC)c(OC)c2)cc1 (stereo not given) | -1.62 |  | 0.651 µM [falling, full curve, poor fit]
COc1ccc(CCNC(=O)/C=C\c2ccccc2)cc1OC | -57.7 | 6.51 µM [falling, partial curve] | 7.31 µM [falling, partial curve]
COc1ccc(O/C(=N\S(=O)(=O)c2ccccc2)c2ccccc2)cc1 | -86.6 | 29.1 µM [falling, single point] | 6.51 µM [falling, full curve]
Cc1nnn(C23CC4CC(CC(C(=O)NN)(C4)C2)C3)n1 | 34 | 20.6 µM [rising, single point] | 
Cc1cc2oc(=O)c(CC(=O)NCCCO)c(C)c2c2occ(C(C)(C)C)c12 | -60.2 | 13 µM [falling, partial curve] | 14.6 µM [falling, partial curve]
Fc1ccc(-c2nnc(-c3ccc(F)cc3)o2)cc1 |  | 29.1 µM [rising, single point] | 
COc1ccc(C)c(S(=O)(=O)Nc2ccc(OCC(=O)O)cc2)c1 |  | 1.46 µM [rising, partial curve] | 
